From publication PMC9691359
No constants are given. Whether binding was seen depends on the method and setting. Binding seen in cells or lysates may run through a third protein. Some binding calls cover weakened binding; strength is not graded here. Sequences can lack the tags named with a protein.

By UniProt entry, the sequences of proteins in these tests, tags left out.
UniProt P70335: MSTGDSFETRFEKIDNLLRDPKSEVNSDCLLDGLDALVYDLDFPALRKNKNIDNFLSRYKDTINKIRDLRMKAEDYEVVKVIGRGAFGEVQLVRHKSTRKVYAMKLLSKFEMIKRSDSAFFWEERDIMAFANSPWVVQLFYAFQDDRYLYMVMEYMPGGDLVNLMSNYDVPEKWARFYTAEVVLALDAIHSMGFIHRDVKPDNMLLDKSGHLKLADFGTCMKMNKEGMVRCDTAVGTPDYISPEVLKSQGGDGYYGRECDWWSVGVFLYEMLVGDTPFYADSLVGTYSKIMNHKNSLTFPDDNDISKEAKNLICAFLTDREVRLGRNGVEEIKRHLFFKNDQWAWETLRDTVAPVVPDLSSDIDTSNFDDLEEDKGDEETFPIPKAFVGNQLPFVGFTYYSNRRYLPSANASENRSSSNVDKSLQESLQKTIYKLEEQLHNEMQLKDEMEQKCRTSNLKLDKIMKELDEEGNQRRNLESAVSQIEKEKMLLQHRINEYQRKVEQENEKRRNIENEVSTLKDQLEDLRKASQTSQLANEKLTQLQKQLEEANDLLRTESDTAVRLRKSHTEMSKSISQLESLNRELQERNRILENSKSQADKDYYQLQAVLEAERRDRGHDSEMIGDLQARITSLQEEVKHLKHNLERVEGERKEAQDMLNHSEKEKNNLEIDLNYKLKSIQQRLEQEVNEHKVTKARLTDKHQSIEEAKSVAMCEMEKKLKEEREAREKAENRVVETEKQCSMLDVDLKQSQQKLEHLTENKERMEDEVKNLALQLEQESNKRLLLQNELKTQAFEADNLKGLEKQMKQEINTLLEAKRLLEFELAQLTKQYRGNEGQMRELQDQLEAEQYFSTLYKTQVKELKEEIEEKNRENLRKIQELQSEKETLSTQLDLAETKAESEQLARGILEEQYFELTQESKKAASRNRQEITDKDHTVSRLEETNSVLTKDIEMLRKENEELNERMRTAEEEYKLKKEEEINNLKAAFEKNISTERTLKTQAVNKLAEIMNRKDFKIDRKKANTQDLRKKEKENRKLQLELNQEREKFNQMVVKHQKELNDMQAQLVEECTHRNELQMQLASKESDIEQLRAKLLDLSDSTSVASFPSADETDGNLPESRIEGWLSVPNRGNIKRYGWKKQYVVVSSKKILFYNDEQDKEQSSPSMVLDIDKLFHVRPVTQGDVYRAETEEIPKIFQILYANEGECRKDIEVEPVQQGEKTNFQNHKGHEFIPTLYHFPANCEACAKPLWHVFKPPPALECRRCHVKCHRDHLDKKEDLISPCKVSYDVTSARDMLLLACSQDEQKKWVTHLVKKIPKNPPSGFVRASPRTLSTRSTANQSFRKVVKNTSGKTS

Target: T1, Rho family GTPase 3 (Rnd3), Flag-tagged, expressed from adenovirus Ad-Rnd3-Flag (UniProt P61588)
T1 sequence: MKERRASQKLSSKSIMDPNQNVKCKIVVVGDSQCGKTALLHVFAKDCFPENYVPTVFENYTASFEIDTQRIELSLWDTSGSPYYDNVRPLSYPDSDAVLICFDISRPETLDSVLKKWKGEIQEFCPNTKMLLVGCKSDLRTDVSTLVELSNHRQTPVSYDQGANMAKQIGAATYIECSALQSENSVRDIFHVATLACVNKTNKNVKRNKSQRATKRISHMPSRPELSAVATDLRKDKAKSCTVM
Assay: co-IP; cardiac fibroblasts treated with Ad-Rnd3-Flag in conditioned medium (HG+PA); which protein was precipitated is not told in the text shown

In the case of “Rho-associated kinase 1 (ROCK1) (from UniProt P70335 1-1354) (enzyme)”, the binding is reported as “binds”.
